Reference: PubChem BioAssay AID1347076 (National Center for Advancing Translational Sciences (NCATS), 2019)
About 13,000 (3.2%) of roughly 400,000 compounds were called active. Inconclusive results, whose numbers are uncertain, are shown with a selection of clear calls. Calls follow the shape of the dose curve; as a rule, active = well fitted cell-killing curve with a large enough effect; inconclusive = small, poorly fitted or top-dose-only effect, or effect the other way; inactive = flat fitted curve, though single readings scatter. Potencies beside an inconclusive call are fits to weak or partial responses and may not hold up.

Assay: qHTS assay for MDR1-selective chemotherapeutics: Primary screen using the drug-selected MDR subline cells KB-V1; also: nearly all actives have a fitted effect of over 60% in size
Settings: KB-V1 MDR cells viability, CellTiter-Glo, 72 h; activity change, negative = cytotoxicity: at 46.1 µM (top of the series)
Outline: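 KB-V1 cells (P-gp-expressing MDR subline of KB-3-1) in phenol-red-free DMEM with 10% FBS were exposed to library compounds over a concentration series for 72 h at 37 degrees C. Viability read by CellTiter-Glo luminescence; concentration-effect curves fitted after normalization.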
% is scaled to controls: 0 for no effect and ±100 for the full control effect; potency is read from the fitted curve at half-maximal effect.

Row | Compound | Potency | activity change, negative = cytotoxicity
1 | CSc1ccc(CCNC(=O)c2nn(C)c3c2CS(=O)(=O)c2ccccc2-3)cc1 | inactive | –
2 | CCOCCn1ccc2c(OCC(=O)NCc3ccccc3)cccc2c1=O | inconclusive: 7.31 µM [cytotoxic, partial curve] | –
3 | Cc1ccc(-c2nc(N3CCOCC3)sc2C(=O)N2CCOCC2)cc1 | inactive | –
4 | O=C1OC(Cc2ccccc2)C(c2ccccc2)C1=O (stereo not drawn) | inconclusive: 20.6 µM [cytotoxic, single point] | –
5 | CN(C)S(=O)(=O)c1cccc(NC(=O)C(c2ccccc2)c2ccccc2)c1 | inconclusive: 23.1 µM [cytotoxic, single point] | –
6 | CCOC(=O)c1c2n(c3c(NCc4ccccc4)ncnc13)CCCC2 | inconclusive: 8.2 µM [cytotoxic, partial curve] | –
7 | CCOC(=O)c1c(C)[nH]c(C(=O)COC(=O)CCSc2ccccc2)c1C | active: 1.64 µM | –
8 | CSc1ccc(/C=N/n2nnnc2N)cc1 | inconclusive: 29.1 µM [cytotoxic, single point] | –
9 | O=C(Nc1ccc(N2CCCCC2)cc1)c1ccc([N+](=O)[O-])o1 | inconclusive: 20.6 µM [cytotoxic, single point] | –
10 | CCOc1ccccc1C1Nc2ccccc2-c2nnc(SCc3ccccc3)nc2O1 (stereo not drawn) | inactive | –
11 | O=C1CNC(=O)/C(=C/c2ccco2)N1 | inactive | –
12 | CN(CC(=O)Nc1cccc(F)c1)C(=O)COc1cccc2c1OC(C)(C)C2 | inconclusive: 29.1 µM [cytotoxic, single point] | –
13 | Cc1ccc(-c2nnc(SCC(=O)NC3CCCC3)n2N)cc1 | inconclusive: 29.1 µM [cytotoxic, single point] | –
14 | COc1ccc(Nc2cc(C(=O)NCCCN(C)C3CCCCC3)c3ccccc3n2)cc1 | inactive | –
15 | COc1cc(NC(=O)CN(c2ccc(C)cc2)S(=O)(=O)c2c(C)noc2C)cc(OC)c1 | inconclusive: 29.1 µM [cytotoxic, single point] | –
16 | O=C(O)COc1ccccc1/C=N/NC(=O)c1cc(-c2ccccc2)nc2ccccc12 | inactive | –
17 | N=c1oc2cc(O)ccc2cc1C(=O)Nc1ccc(Br)cc1 | active: 18.4 µM | –
18 | CC(=O)Nc1cccc(Oc2cnc3ccccc3n2)c1 | inconclusive: 29.1 µM [cytotoxic, partial curve, poor fit] | –
19 | CCOC(=O)C1CCN(C(c2cccnc2)c2c(NC(=O)c3ccco3)sc(C)c2C)CC1 (stereo not drawn) | active: 2.91 µM | –
20 | COc1ccc(OCC(=O)N2CCN(c3nnc(-c4ccc(C)cc4)c4ccccc34)CC2)cc1 | active: 5.17 µM | –
21 | COc1cccc(C(C)NC(=O)Nc2cc(Cl)ccc2OC)c1 (stereo not drawn) | inactive | –
22 | O=[N+]([O-])c1ccc(N/N=C2/CCCCC2c2ccccn2)cc1 (stereo not drawn) | inactive | –
23 | CCc1ccc2c(c1)C1(C(=O)N2)N2CCCC2C(C(=O)c2ccc3ccccc3c2)C12C(=O)Nc1ccccc12 (stereo not drawn) | inconclusive: 16.4 µM [cytotoxic, single point] | –
24 | COCCCn1c(=N)c(C(=O)NC2CCCC2)cc2c(=O)n3cc(C)ccc3nc21 | inconclusive: 29.1 µM [rising, single point] | –
25 | Cc1cc(=O)n(C)c(=O)n1CCCCCCOc1cccc([N+](=O)[O-])c1 | active: 7.31 µM | –

Row | Compound | Potency | activity change, negative = cytotoxicity
26 | COc1cccc(C2=CC(c3ccccc3)n3nnnc3N2)c1 (stereo not drawn) | active: 6.51 µM | –
27 | Cc1ccc(Nc2nnc(SCC(=O)c3cc4ccccc4o3)s2)cc1C | active: 20.6 µM | –
28 | Cc1nn(C)c2c1c(C(F)(F)F)cc(=O)n2CC(=O)NC(C)(C)C | inactive | –
29 | COc1ccc(Nc2cc(C)nc3ccc(OC)cc23)cc1 | inconclusive: 13 µM [cytotoxic, partial curve, poor fit] | –
30 | O=C(/C=C/c1ccc(Br)cc1)N1CCN(Cc2ccccc2)CC1 | inconclusive: 29.1 µM [rising, single point] | –
31 | CC(C)N(C(=O)c1ccc(Cc2cn(C)c3ccccc23)nc1)C(C)C | inactive | –
32 | COc1ccc(NC(C)=O)cc1S(=O)(=O)N1CCN(Cc2cccs2)CC1 | inactive | –
33 | Cc1ccc(C(=O)Nc2ccc(N3CCN(S(C)(=O)=O)CC3)cc2)cc1C | inactive | –
34 | COc1cc(OC)cc(-c2cc3ccc(OC)cc3cn2)c1 | inconclusive: 25.9 µM [cytotoxic, single point] | –
35 | O=C(CN1CCc2cc3c(cc2C1)OCCCO3)Nc1cccc(Br)c1 | inactive | –
36 | O=C(Nc1ncc([N+](=O)[O-])s1)C1COc2ccccc2O1 (stereo not drawn) | inconclusive: 29.1 µM [cytotoxic, single point] | –
37 | CCN(C(=O)COC(=O)/C(=C/c1ccccc1)n1nnnc1C)C1CCCCC1 | inconclusive: 16.4 µM [cytotoxic, partial curve, poor fit] | –
38 | Oc1ccccc1/C=N/Nc1cccc2cccnc12 | inconclusive: 29.1 µM [cytotoxic, single point] | –
39 | O=C1N[C@@H](Cc2ccccc2)C(=O)N1CCN1CCOCC1 | inactive | –
40 | CN(Cc1ccc(F)cc1)C(=O)c1cccc(S(=O)(=O)N2CCN(Cc3ccccc3)CC2)c1 | inactive | –
41 | COc1ccc(-c2cc(-c3cccs3)c(C#N)c(SCC(=O)NCc3ccco3)n2)cc1 | inconclusive: 2.91 µM [cytotoxic, partial curve, poor fit] | –
42 | O=C1c2ccccc2C(=O)N1C(CO)C(O)c1ccc([N+](=O)[O-])cc1 (stereo not drawn) | inconclusive: 18.4 µM [rising, single point] | –
43 | O=C(Cc1ccc(-c2ccccc2)cc1)Nc1ccccn1 | inconclusive: 9.2 µM [cytotoxic, partial curve, poor fit] | –
44 | O=S(=O)(NC(=S)NC1CCCCC1)c1ccc(Br)cc1 | inactive | –
45 | CC(C)(C)S(=O)N1Cc2cc(C(=O)NCc3ccc4c(c3)OCO4)nc(-c3cccc(-c4cc5ccccc5o4)c3)c2[C@@H]1CCO (stereo partly drawn) | inactive | –
46 | COc1ccc([C@@H]2Sc3cc(OC)ccc3N(CCN(C(C)C)C(C)C)C(=O)[C@H]2OC(C)=O)cc1 | inconclusive: 7.31 µM [cytotoxic, partial curve, poor fit] | –
47 | O=C(Cc1cccc2ccccc12)Nc1ccc(Br)cc1C(=O)O | inconclusive: 29.1 µM [cytotoxic, partial curve, poor fit] | –
48 | O=C(NCc1nnc(SCC(=O)N2CCCCCC2)o1)c1ccco1 | inactive | –
49 | Cc1ccc2c(c1)c1ncn(Cc3ccc(F)cc3)c(=O)c1n2C | inconclusive: 3.26 µM [cytotoxic, full curve, poor fit] | –
50 | Cc1cc(C)nc(SC(C(=O)O)c2ccccc2)n1 (stereo not drawn) | inconclusive: 29.1 µM [rising, single point] | –

Copied from the list:
Entry for `CCN(C(=O)COC(=O)/C(=C/c1ccccc1)n1nnnc1C)C1CCCCC1` under Potency: inconclusive: 16.4 µM [cytotoxic, partial curve, poor fit]
Entry for `CN(Cc1ccc(F)cc1)C(=O)c1cccc(S(=O)(=O)N2CCN(Cc3ccccc3)CC2)c1` under Potency: inactive
Entry for `Oc1ccccc1/C=N/Nc1cccc2cccnc12` under Potency: inconclusive: 29.1 µM [cytotoxic, single point]
Entry for `COc1ccc(NC(C)=O)cc1S(=O)(=O)N1CCN(Cc2cccs2)CC1` under Potency: inactive
Entry for `COc1ccc(Nc2cc(C)nc3ccc(OC)cc23)cc1` under Potency: inconclusive: 13 µM [cytotoxic, partial curve, poor fit]

(continued)

Row | Compound | Potency | activity change, negative = cytotoxicity
51 | O=C(O)c1cccc([N+](=O)[O-])c1C(=O)Nc1cccc2ccccc12 | inconclusive: 29.1 µM [rising, single point] | –
52 | CCOc1ccc(OCC)c(NC(=O)CCn2c(=O)oc3ccccc32)c1 | active: 8.2 µM | –
53 | CC(C)(C)c1cc[n+](-c2[nH]c(=O)sc2/C=N/N=C(\[O-])c2cccnc2)cc1 | – | inconclusive: 20.2%
54 | CCOC(=O)c1sc(NC(=O)Nc2ccccc2F)nc1C | inconclusive: 23.1 µM [cytotoxic, single point] | –
55 | CC(C)(C)NC(=O)CN(C(=O)CNS(=O)(=O)c1ccc(Cl)cc1)c1ccc2c(c1)OCCO2 | inconclusive: 23.1 µM [cytotoxic, partial curve, poor fit] | –
56 | CC(=O)Nc1c(C(=O)N2CCCCCC2)cnn1-c1ccccc1Cl | inconclusive: 7.31 µM [cytotoxic, partial curve] | –
57 | COc1cccc(-c2ccc3ncnc(NCc4ccc5c(c4)OCO5)c3c2)c1 | inactive | –
58 | CCC(C)c1ccc(S(=O)(=O)N2CCN(C(C)C(=O)NC3CCCC3)CC2)cc1 (stereo not drawn) | active: 5.8 µM | –
59 | CCCOc1ccc(C(=O)Nc2ccc(S(=O)(=O)N3CCN(C)CC3)cc2)cc1 | inconclusive: 7.31 µM [cytotoxic, partial curve] | –
60 | O=C(CSc1nc(-c2ccco2)cc(C(F)(F)F)n1)Nc1ccc2c(c1)CCC2 | inconclusive: 20.6 µM [cytotoxic, single point] | –
61 | Cc1ccc2nc(-c3ccc(NC(=O)COCC(=O)O)cc3)sc2c1 | inconclusive: 18.4 µM [rising, single point] | –
62 | C/C(=N\NC(=S)NC1CCCCC1)c1ccc(OC(F)F)cc1OC(F)F | inconclusive: 14.6 µM [cytotoxic, partial curve] | –
63 | CCOCCn1c(CN2CCN(c3ccc(F)cc3)CC2)nc2c1c(=O)n(C)c(=O)n2C | active: 9.2 µM | –
64 | COc1ccc(CN(CCC(c2ccco2)C(C)C)C(C)=O)cc1OC (stereo not drawn) | inconclusive: 13 µM [cytotoxic, partial curve] | –
65 | COc1ccc(CCNC(=O)c2cc3cc(Cl)ccc3nc2N)cc1OC | inactive | –
66 | CCOC(=O)c1cnc(-n2nc(C)cc2C)nc1N(C)C | inactive | –
67 | CCOC(=O)CSc1snnc1C | inactive | –
68 | COC(=O)Cc1ccc(NC(=O)c2ccc(C(C)(C)C)cc2)cc1 | inconclusive: 11.6 µM [cytotoxic, partial curve, poor fit] | –
69 | C=CCn1c(-c2ccc(OC)c(OC)c2)n[nH]c1=S | active: 16.4 µM | –
70 | Cc1cc(C)n(-c2ccc(C(=O)OCC(=O)Nc3ccc([N+](=O)[O-])cc3)cc2)n1 | inactive | –
71 | CCN(c1cccc(C(F)(F)F)c1)S(=O)(=O)c1ccc2c(c1)CCN2C(C)=O | inconclusive: 16.4 µM [cytotoxic, partial curve] | –
72 | O=Cc1ccc(-c2cccc(C(=O)O)c2)o1 | inconclusive: 29.1 µM [rising, single point] | –
73 | O=C1NC2=C(CCc3ccccc32)C(c2ccc(Br)cc2)N1 (stereo not drawn) | active: 20.6 µM | –
